Amino acid sequences for entries named in this document (tags omitted). A change or cut given only in a name is not applied to a line headed by its entry.
UniProt P16615, whole entry, stated change not applied: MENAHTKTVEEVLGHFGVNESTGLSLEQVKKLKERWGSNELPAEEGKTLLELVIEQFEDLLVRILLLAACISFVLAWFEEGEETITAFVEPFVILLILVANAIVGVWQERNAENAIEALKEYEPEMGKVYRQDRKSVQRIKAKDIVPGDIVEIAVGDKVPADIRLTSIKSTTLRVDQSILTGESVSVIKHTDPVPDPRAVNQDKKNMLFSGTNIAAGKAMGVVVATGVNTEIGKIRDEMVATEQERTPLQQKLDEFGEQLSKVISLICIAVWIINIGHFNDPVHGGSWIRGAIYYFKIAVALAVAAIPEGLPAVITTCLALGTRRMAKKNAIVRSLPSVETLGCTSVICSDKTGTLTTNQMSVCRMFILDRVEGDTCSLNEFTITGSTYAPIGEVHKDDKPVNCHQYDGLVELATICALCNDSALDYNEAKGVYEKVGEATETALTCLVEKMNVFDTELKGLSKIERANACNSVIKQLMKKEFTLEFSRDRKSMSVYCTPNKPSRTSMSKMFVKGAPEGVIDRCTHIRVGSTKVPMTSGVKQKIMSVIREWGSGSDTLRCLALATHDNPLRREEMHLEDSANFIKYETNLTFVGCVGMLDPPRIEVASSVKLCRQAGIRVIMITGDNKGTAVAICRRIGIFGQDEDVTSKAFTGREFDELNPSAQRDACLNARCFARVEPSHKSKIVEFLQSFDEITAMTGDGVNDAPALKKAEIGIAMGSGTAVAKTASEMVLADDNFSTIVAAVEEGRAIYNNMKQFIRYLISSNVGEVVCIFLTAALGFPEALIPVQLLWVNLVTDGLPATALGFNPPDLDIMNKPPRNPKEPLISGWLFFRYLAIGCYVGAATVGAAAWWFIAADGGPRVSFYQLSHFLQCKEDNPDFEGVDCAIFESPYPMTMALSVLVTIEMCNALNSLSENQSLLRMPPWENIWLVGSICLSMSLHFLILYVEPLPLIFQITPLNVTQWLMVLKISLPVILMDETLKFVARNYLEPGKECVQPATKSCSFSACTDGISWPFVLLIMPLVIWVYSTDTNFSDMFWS

According to publication doi:10.1101/2023.11.07.565948:

Biological target: SERCA2 (sarco-ER Ca2+ ATPase 2) (human (endogenous in HEK293)) (UniProt P16615)
Assay: co-IP

Substance: Myc-tagged SELENOT^U49C (selenoprotein T, selenocysteine 49 changed to cysteine) (from UniProt P62341)
- binding: binds

These are yes or no findings as the source states them, for the method shown. In cells and extracts the contact can be indirect. Binding calls can cover weak binding; strength is not graded here.
